Data: US5688659 (dated 1997)

Assay: general procedure: Fmoc solid-phase peptide synthesis; Wang resin (polystyrene/1% divinylbenzene), loading 0.50 mmol/g; dicyclohexylcarbodiimide / N-hydroxybenzotriazole
Conditions: whole synthesis, RP-HPLC, scale of the general procedure 5 g resin

For H-PESSELTTE-OH, the “crude HPLC purity” value was 54% and the “final HPLC purity” value was 97.2%.
